Reference: the supplement of paper PMC11006884
The list shows a part of the results, in another mix than the full data. This is a noisy data set.

The chains behind the UniProt entries cited, without tags or fusion partners. Where a name states a change or a piece, a line headed by the entry shows the natural chain unless it says otherwise.
UniProt O43432, whole entry, looked up: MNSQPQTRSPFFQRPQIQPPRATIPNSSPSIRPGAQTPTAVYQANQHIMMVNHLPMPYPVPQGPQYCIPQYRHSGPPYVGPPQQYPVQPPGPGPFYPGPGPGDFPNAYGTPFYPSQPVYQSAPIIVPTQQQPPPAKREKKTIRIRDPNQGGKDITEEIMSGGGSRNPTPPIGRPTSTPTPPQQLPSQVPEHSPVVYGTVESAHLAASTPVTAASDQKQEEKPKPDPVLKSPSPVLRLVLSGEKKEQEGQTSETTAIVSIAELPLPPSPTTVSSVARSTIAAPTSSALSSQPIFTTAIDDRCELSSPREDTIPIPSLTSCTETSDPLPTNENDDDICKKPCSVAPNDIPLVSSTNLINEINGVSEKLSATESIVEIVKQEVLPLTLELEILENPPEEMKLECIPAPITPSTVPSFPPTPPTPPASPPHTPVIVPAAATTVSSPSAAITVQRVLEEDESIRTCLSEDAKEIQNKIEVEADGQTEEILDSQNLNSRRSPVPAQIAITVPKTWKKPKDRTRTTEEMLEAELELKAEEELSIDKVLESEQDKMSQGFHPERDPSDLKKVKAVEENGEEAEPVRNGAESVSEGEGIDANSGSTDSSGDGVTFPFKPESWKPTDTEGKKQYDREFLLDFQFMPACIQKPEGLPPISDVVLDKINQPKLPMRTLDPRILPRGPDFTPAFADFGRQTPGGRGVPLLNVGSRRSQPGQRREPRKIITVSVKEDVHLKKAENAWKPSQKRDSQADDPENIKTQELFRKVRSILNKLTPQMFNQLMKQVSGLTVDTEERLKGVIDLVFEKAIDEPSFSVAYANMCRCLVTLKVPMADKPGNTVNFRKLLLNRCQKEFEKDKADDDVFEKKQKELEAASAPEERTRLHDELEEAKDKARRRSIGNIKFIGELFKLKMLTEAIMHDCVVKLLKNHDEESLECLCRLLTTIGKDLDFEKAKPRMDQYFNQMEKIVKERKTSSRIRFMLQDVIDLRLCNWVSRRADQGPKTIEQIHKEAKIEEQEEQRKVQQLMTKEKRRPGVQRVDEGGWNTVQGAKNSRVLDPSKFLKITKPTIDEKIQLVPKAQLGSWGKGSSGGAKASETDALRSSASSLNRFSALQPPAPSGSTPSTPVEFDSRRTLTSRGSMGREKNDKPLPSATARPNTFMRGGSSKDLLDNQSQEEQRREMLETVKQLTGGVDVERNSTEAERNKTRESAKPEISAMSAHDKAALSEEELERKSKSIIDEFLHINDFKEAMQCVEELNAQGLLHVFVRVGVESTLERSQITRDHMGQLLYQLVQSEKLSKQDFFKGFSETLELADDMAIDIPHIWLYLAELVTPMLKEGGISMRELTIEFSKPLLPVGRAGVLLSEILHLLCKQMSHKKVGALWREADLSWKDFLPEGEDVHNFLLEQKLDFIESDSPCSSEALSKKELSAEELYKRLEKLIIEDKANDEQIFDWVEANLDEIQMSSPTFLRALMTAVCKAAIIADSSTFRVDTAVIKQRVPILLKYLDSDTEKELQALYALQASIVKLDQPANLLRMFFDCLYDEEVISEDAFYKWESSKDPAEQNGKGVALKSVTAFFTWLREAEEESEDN
UniProt O75152: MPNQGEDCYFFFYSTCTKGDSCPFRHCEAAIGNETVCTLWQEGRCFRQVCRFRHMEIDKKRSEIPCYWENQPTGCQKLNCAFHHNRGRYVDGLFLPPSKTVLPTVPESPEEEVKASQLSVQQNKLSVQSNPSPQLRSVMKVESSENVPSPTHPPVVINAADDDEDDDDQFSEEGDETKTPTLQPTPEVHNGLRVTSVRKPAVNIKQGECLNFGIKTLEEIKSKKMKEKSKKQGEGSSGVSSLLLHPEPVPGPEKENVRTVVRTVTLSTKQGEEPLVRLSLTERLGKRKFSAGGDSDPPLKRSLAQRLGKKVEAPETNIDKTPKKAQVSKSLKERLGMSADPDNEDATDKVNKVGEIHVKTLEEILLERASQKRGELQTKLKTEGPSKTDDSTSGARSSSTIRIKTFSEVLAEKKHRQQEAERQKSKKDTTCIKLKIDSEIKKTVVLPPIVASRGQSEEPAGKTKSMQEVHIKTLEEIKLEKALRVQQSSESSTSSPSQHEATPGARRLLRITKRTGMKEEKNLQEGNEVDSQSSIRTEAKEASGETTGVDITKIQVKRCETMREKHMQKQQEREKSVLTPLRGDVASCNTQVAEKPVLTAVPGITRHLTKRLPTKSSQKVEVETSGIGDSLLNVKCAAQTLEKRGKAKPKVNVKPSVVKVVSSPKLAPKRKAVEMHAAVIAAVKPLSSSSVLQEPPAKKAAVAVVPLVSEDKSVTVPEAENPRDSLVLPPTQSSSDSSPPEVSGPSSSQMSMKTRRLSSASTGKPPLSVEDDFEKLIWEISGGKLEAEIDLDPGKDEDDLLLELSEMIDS
UniProt O76080: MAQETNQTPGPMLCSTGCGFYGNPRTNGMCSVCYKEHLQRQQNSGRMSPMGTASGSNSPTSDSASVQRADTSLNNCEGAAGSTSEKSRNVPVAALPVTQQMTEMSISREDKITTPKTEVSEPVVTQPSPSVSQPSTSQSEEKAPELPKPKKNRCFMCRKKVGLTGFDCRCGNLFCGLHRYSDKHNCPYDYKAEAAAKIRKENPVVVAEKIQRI
UniProt O75179: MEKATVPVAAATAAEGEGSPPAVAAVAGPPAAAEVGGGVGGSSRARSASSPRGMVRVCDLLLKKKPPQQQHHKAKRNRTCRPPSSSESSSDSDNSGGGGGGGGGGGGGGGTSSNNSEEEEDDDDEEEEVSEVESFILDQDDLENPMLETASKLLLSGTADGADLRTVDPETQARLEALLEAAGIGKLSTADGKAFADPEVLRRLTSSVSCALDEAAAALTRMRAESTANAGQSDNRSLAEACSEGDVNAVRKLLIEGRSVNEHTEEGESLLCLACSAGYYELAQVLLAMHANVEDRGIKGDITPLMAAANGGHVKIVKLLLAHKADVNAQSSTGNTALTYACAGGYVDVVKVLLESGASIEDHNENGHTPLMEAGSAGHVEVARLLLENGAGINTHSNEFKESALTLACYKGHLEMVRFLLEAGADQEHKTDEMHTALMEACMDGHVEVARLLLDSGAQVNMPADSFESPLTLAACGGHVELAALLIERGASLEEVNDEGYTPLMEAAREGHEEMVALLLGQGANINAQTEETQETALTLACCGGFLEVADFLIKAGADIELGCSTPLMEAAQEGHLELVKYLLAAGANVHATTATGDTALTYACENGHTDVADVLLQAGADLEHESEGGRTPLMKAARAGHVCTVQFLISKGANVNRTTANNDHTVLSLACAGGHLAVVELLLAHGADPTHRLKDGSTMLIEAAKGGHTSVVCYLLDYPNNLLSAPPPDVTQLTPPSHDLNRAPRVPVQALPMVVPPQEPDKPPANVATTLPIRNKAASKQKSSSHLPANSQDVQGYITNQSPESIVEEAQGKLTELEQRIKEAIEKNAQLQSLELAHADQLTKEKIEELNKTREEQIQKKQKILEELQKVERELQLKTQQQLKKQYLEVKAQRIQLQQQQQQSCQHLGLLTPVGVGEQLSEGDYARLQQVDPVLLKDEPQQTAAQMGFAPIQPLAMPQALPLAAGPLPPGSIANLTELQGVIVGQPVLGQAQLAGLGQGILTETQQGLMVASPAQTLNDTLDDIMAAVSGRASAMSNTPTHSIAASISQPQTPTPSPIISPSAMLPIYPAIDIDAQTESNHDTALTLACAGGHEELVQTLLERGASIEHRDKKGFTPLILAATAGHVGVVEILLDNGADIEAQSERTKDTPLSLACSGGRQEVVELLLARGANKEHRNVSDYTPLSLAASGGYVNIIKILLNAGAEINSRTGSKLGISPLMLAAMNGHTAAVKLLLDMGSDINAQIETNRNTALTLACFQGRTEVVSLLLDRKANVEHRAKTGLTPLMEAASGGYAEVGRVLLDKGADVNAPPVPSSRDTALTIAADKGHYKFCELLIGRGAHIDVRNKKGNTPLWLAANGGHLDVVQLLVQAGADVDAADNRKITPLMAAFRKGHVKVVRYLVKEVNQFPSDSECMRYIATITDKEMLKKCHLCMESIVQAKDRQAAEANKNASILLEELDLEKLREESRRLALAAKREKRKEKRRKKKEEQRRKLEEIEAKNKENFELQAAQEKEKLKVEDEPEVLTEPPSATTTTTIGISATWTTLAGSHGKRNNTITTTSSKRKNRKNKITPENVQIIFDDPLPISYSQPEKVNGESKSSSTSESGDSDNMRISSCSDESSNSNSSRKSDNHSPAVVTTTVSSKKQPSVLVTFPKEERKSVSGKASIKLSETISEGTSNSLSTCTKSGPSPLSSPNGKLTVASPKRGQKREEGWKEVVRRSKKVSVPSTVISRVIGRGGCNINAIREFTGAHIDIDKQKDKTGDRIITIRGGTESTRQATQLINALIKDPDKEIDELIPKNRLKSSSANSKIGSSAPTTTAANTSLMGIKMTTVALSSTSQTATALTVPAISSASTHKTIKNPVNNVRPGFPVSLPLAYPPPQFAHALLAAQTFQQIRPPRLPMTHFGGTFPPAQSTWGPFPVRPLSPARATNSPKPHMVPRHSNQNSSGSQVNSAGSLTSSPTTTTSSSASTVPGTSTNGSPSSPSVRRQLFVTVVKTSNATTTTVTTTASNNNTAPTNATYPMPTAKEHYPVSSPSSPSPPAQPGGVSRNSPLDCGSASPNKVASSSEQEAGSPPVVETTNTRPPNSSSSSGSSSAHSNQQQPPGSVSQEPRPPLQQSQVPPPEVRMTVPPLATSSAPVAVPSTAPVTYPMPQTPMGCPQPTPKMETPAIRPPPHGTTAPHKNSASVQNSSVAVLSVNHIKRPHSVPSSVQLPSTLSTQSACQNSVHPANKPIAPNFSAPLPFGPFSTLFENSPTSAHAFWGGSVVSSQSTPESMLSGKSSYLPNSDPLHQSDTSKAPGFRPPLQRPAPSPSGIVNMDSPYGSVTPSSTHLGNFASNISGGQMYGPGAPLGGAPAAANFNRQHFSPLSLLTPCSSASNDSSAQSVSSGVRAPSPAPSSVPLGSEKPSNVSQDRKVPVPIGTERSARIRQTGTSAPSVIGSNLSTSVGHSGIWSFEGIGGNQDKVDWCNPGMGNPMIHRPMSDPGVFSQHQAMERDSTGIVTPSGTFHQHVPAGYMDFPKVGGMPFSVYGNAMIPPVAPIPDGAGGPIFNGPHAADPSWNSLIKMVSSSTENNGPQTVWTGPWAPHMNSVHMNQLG
UniProt O75334: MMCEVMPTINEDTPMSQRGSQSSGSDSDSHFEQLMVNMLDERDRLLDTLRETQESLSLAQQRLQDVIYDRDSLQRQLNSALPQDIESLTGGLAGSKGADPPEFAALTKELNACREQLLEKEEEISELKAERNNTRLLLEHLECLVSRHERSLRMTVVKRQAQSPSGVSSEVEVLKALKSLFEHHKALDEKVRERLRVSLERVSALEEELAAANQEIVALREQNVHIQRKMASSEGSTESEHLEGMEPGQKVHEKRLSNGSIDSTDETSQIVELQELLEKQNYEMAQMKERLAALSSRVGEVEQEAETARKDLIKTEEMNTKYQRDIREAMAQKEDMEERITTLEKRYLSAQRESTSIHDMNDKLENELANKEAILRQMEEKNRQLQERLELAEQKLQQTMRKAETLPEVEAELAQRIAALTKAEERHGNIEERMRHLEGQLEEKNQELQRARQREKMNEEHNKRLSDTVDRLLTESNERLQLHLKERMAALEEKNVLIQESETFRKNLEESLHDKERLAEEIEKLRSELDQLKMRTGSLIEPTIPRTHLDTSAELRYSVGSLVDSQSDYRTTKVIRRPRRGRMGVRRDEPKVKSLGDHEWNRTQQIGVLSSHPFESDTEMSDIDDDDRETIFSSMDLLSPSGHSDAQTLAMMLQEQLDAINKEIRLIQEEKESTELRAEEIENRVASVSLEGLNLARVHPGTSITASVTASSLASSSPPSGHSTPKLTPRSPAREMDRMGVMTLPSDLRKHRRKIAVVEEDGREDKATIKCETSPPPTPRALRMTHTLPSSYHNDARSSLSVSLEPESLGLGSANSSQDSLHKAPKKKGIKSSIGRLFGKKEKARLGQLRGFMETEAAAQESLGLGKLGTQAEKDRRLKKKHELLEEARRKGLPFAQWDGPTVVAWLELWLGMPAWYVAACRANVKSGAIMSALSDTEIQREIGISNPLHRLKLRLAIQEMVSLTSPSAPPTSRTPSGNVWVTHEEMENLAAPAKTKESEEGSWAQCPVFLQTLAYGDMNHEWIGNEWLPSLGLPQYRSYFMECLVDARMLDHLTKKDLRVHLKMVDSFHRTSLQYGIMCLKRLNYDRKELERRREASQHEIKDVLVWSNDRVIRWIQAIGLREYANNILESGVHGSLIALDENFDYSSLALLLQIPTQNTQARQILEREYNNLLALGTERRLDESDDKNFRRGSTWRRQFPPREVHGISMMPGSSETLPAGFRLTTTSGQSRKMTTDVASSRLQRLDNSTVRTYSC

Compound: COC(=O)/C=C/c1ccccc1 [methyl cinnamate]
Assay: log2 ratio of iodoacetamide-alkyne labeling of the cysteine site, DMSO over compound (competition); higher = stronger covalent engagement of the cysteine by the compound, active = 1 or more
Settings: 500 µM; treatment time 1 h; system: HEK293T cell lysate
How it was run: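 After 1 h at ambient temperature with vehicle or electrophile (500 µM), HEK293T lysate (2 mg/mL) was labelled for 1 h with iodoacetamide alkyne and clicked to sCIP-TMT reagents. Pooled samples were trypsin-digested overnight at 37 °C, streptavidin-enriched, acid-eluted and analysed by Orbitrap Eclipse LC-MS/MS with FAIMS, then quantified in FragPipe over three replicates with duplicate channels. A cysteine's log2 competition ratio is its mean control-channel over mean compound-channel reporter intensity. Cysteines quantified in only one replicate were not included.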

Question: EPB41L2 C424 (UniProt O43491) was tested. Which “log2 ratio of iodoacetamide-alkyne labeling” value (shortened to “log2 ratio”) did it give?
Answer: inactive: 0.149

Question: UniProt O43432_C638 was tested. Which “log2 ratio” value did it give?
Answer: inactive: -0.096

Question: CSDE1 C53 (UniProt O75534) was tested. Which “log2 ratio” value did it give?
Answer: inactive: 0.252

Question: With SMARCA5 C165 (UniProt O60264) as the target, how does the “log2 ratio” value read?
Answer: inactive: 0.333

Question: For URB1 C1163 (UniProt O60287), which “log2 ratio” value is on record?
Answer: inactive: -0.242

Question: With EXOC3 C465 (UniProt O60645) as the target, how does the “log2 ratio” value read?
Answer: inactive: -0.17

Question: How did the “log2 ratio” value turn out when LYPLA1 C169 (UniProt O75608) was run?
Answer: inactive: 0.00126

Question: Which “log2 ratio” value does the source give for ZC3H11A C588 (UniProt O75152) here?
Answer: inactive: 0.0193

Question: How did the “log2 ratio” value turn out when NCOR1 C2056 (UniProt O75376) was run?
Answer: inactive: 0.177

Question: With UTP20 C2058 (UniProt O75691) as the target, how does the “log2 ratio” value read?
Answer: inactive: 0.275

Question: With SNX2 C413 (UniProt O60749) as the target, how does the “log2 ratio” value read?
Answer: inactive: 0.569

Question: For PAPSS1 C207 (UniProt O43252), which “log2 ratio” value is on record?
Answer: inactive: 0.253

Question: For UniProt O43929_C16, which “log2 ratio” value is on record?
Answer: inactive: 0.057

Question: ZFAND5 C76 (UniProt O76080) was tested. Which “log2 ratio” value did it give?
Answer: inactive: 0.279

Question: With ANKRD17 C210 (UniProt O75179) as the target, how does the “log2 ratio” value read?
Answer: inactive: 0.126

Question: UniProt O43598_C26 was tested. Which “log2 ratio” value did it give?
Answer: inactive: 0.13

Question: How did the “log2 ratio” value turn out when PPFIA2 C143 (UniProt O75334) was run?
Answer: inactive: -0.191

Question: Which “log2 ratio” value does the source give for PLOD3 C691 (UniProt O60568) here?
Answer: inactive: 0.208

Question: For NUP155 C974 (UniProt O75694), which “log2 ratio” value is on record?
Answer: inactive: 0.422

Question: How did the “log2 ratio” value turn out when XRCC3 C86 (UniProt O43542) was run?
Answer: inactive: -0.322

Question: With TBC1D4 C753 (UniProt O60343) as the target, how does the “log2 ratio” value read?
Answer: inactive: 0.36

Question: How did the “log2 ratio” value turn out when RECQL5 C457 (UniProt O94762) was run?
Answer: inactive: 0.221
